The comparison behind a weaker result is the experiment's own reference, which may not be listed here. For part of these data: The exact form of at least one protein or probe is not confirmed.
Tests used:
[1] = target: Stat1alpha, phosphorylated Tyr701 (Homo sapiens) (UniProt P42224); test: EMSA; details: purified recombinant protein, label: 32P, variant of 2x cfosWT (10 bp spacing)
[2] = target: Stat1tc, phosphorylated Tyr701 (Homo sapiens) (UniProt P42224); test: EMSA; details: dimer and 2x(dimer) formed but displaced in <1 min; no N-terminal 131 aa; purified recombinant protein; label: 32P

Protein sequences, listed by entry. Tags and fused reporters are not part of them. Lines headed by an entry give the natural chain unless they say otherwise; changes in a name come on top.
UniProt P42224: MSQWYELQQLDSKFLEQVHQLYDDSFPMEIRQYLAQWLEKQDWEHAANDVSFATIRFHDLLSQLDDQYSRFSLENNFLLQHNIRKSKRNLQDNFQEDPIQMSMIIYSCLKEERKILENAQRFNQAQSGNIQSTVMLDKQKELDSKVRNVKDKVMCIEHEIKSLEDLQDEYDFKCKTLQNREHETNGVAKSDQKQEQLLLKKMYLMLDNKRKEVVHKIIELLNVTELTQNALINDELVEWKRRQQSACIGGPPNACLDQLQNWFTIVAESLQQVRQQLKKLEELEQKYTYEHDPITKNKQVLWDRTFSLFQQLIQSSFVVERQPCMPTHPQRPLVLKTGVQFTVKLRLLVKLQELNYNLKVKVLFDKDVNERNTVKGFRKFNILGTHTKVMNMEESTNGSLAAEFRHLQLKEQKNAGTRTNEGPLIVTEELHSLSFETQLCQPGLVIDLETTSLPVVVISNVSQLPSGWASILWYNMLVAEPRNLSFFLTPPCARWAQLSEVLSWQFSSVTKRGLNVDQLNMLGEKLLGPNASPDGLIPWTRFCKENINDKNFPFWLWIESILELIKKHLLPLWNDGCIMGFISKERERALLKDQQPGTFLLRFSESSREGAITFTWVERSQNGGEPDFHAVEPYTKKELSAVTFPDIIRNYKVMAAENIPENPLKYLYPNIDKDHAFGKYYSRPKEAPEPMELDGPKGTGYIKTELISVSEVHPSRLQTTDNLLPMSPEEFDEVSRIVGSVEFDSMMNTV

AGTCATTTCCCGTCAATGCATCAGTTGACGGGAAAGTAGT (double strand) [2x cfosWT (inverted repeat)]
binding result ([1]; much less 2x(dimer) complex, no increased stability): binds more weakly

AGTCAGTTCCCGTCAATGCATCAGGTTCCCGTCAATGCAT (double strand) [2x cfosWT (10 bp spacing)]
binding result [2]: binds more weakly

AGTCAGTTCCCGTCAATGAGTTCCCGTCAATGCA (double strand) [2x cfosWT (5 bp spacing)]
binding result ([1]; much less enhanced stability of 2x(dimer) complex): binds more weakly
